These are yes or no findings as the source states them, for the method shown. Binding can be weak; no strength is given.
Biological target: T1, ZRK1/RKS1 (Arabidopsis thaliana) (UniProt Q9SVY5)
T1 sequence: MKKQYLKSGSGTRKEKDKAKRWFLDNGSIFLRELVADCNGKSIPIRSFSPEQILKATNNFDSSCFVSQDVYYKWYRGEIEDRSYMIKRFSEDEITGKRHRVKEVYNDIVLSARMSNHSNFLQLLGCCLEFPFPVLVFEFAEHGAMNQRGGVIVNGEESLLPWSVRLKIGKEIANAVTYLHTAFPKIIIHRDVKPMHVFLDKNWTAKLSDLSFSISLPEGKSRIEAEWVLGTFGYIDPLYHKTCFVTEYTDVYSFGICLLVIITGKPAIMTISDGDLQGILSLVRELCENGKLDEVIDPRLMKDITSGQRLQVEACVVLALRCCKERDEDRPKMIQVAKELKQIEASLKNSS
Test: two-hybrid; Y3H: LexA-ZRK1/RKS1 bait, 46 PBL preys, AvrAC expressed from the yeast ho locus

binding: binds
Substance: PBL29 (from UniProt Q7Y224)
